PubChem BioAssay AID1508597, Cure First, 2020

Purpose: 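Genes whose silencing sensitises or protects ovarian cancer cells against rucaparib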 (primary screen)
Cells: human ovarian carcinoma lines grown from tumours: OCI-P5x (papillary serous) and OCI-C5x (clear cell)
Knock-down reagent: siRNA pool against human genes, 1.25 pmol siRNA per well
Time to read-out: 72 h or 96 h, depending on the cell culture
Treatment: rucaparib 20 µM (about IC30) or vehicle, present until read-out
Rucaparib or vehicle: Vehicle
Cell line: OCI-C5x (clear cell)
Measurement: 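ATP luminescence measured at 72 or 96 h according to the culture, then normalised and expressed as percent viability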
Scale: viability, normalised: higher = more viable cells remaining
Rule for the call: 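Active when normalised viability falls below 80 percent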
Meaning of the calls: active = viability under 80%; inactive = viability 80% or more
Shown is a random part of the about 2,100 reagents, in one setting of the screen. 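Calls flag viability under 80% in either arm, not effects specific to rucaparib; the reference for percent is not stated.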 Entries without a mark were called inactive. Some reagents were tested in more than one well and are listed for each. The record does not give: the 100% reference.

With SND1 (staphylococcal nuclease and tudor domain containing 1), technical replicate 1, how do the results read?
viability, normalised (%): 59.7 (active)

For SND1 (staphylococcal nuclease and tudor domain containing 1), technical replicate 2, what was measured?
viability, normalised (%): 36.3 (active)

For SND1 (staphylococcal nuclease and tudor domain containing 1), technical replicate 3, what was measured?
viability, normalised (%): 47.3 (active)

With PES1 (pescadillo ribosomal biogenesis factor 1), technical replicate 1, what does the deposit list?
viability, normalised (%): 55.9 (active)

Which result is listed for PES1 (pescadillo ribosomal biogenesis factor 1), technical replicate 2?
viability, normalised (%): 44.4 (active)

For PES1 (pescadillo ribosomal biogenesis factor 1), technical replicate 3, how do the results read?
viability, normalised (%): 42.2 (active)

What is on record for ERN1 (endoplasmic reticulum to nucleus signaling 1), technical replicate 1?
viability, normalised (%): 62.4 (active)

With ERN1 (endoplasmic reticulum to nucleus signaling 1), technical replicate 2, what was measured?
viability, normalised (%): 65.2 (active)

How did the screen score ERN1 (endoplasmic reticulum to nucleus signaling 1), technical replicate 3?
viability, normalised (%): 52.6 (active)

For PAPSS1 (3'-phosphoadenosine 5'-phosphosulfate synthase 1), technical replicate 1, what was measured?
viability, normalised (%): 81.6

For PAPSS1 (3'-phosphoadenosine 5'-phosphosulfate synthase 1), technical replicate 2, what was measured?
viability, normalised (%): 79.3 (active)

Which result is listed for PAPSS1 (3'-phosphoadenosine 5'-phosphosulfate synthase 1), technical replicate 3?
viability, normalised (%): 35.6 (active)

How did the screen score POLB (DNA polymerase beta), technical replicate 1?
viability, normalised (%): 91.8

With POLB (DNA polymerase beta), technical replicate 2, what was measured?
viability, normalised (%): 60.9 (active)

What is on record for POLB (DNA polymerase beta), technical replicate 3?
viability, normalised (%): 53.1 (active)

With EMSY (EMSY transcriptional repressor, BRCA2 interacting), technical replicate 1, what does the deposit list?
viability, normalised (%): 42.9 (active)

What is on record for EMSY (EMSY transcriptional repressor, BRCA2 interacting), technical replicate 1?
viability, normalised (%): 44.7 (active)

What is on record for EMSY (EMSY transcriptional repressor, BRCA2 interacting), technical replicate 2?
viability, normalised (%): 72.4 (active)

With EMSY (EMSY transcriptional repressor, BRCA2 interacting), technical replicate 2, what does the deposit list?
viability, normalised (%): 40.5 (active)

What is on record for EMSY (EMSY transcriptional repressor, BRCA2 interacting), technical replicate 3?
viability, normalised (%): 62.2 (active)

What is on record for EMSY (EMSY transcriptional repressor, BRCA2 interacting), technical replicate 3?
viability, normalised (%): 40 (active)

How did the screen score PIWIL4 (piwi like RNA-mediated gene silencing 4), technical replicate 1?
viability, normalised (%): 41.1 (active)

Which result is listed for PIWIL4 (piwi like RNA-mediated gene silencing 4), technical replicate 2?
viability, normalised (%): 58.6 (active)

What is on record for PIWIL4 (piwi like RNA-mediated gene silencing 4), technical replicate 3?
viability, normalised (%): 49.6 (active)

With SUV39H2 (SUV39H2 histone lysine methyltransferase), technical replicate 1, what does the deposit list?
viability, normalised (%): 35.1 (active)

For SUV39H2 (SUV39H2 histone lysine methyltransferase), technical replicate 2, what was measured?
viability, normalised (%): 45.7 (active)

For SUV39H2 (SUV39H2 histone lysine methyltransferase), technical replicate 3, how do the results read?
viability, normalised (%): 42.5 (active)

With CDCA8 (cell division cycle associated 8), technical replicate 1, what does the deposit list?
viability, normalised (%): 42.4 (active)

How did the screen score CDCA8 (cell division cycle associated 8), technical replicate 2?
viability, normalised (%): 28.2 (active)

With CDCA8 (cell division cycle associated 8), technical replicate 3, how do the results read?
viability, normalised (%): 38.6 (active)

With CTCF (CCCTC-binding factor), technical replicate 1, how do the results read?
viability, normalised (%): 35.8 (active)

For CTCF (CCCTC-binding factor), technical replicate 2, how do the results read?
viability, normalised (%): 37.1 (active)

With CTCF (CCCTC-binding factor), technical replicate 3, what does the deposit list?
viability, normalised (%): 33 (active)
